In patent US12240882B2, “Fusion proteins comprising an engineered knottin peptide and uses thereof” (The Board of Trustees of the Leland Stanford Junior …, priority 2010, dated 2025):
Some of these results come from one statement about several compounds together. Some compounds share one range, which may span the group rather than tell each member.

Test system: PC3 cells
Experiment: Inhibition of PC3 cell adhesion to vitronectin
Assay type: cell-based
Conditions: human vitronectin coated wells; read-out: Half-maximal inhibitor concentration, PC3 cell adhesion to vitronectin

Substance: EETI RGD mutant binding αvβ3, αvβ5, α5β1, SEQ ID NO: 33 GCPRPRGDNPPLTCKQDSDCLAGCVCGPNGFCG [EETI2.5F]
- IC50: 20 to 40 nM
